Entries after “also recorded” stand apart in the source; their conditions may differ.
Test system: mice nociceptive response to formalin
Settings: mouse, in vivo

## CN1CC[C@]23c4c5ccc(O)c4O[C@H]2[C@@H](O)C=C[C@H]3[C@H]1C5 [morphine]
  analgesic effect on licking response: completely ineffective; also recorded: significant analgesic effect; also recorded: block the response to formalin consistently; also recorded: per se ineffective; also recorded: totally ineffective; also recorded: strongly reduce the pain response; also recorded: per se effective
  reduction of licking time: ~50%

— patent US8715666B2 (priority 2005, dated 2014)
